Some of the results follow. Shown are side measurements of this screen, not its main read-out; they come without a call. Most of these compounds were active or inconclusive in the main read-out, so they are no random draw. Words in brackets tell the shape of the fitted curve; partial curves, single points and poor fits give uncertain potencies.
Assay: qHTS Assay for Modulators of Lamin A Splicing
Details: HeLa LMNA splicing GFP/RFP minigene ratio, 48 h
Procedure, shortened: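 Read-out is the ratio of GFP to DsRed2 object intensity, acquired by 488 nm laser-scanning cytometry on HeLa lamin A-EGFP minigene reporter cells. Compound incubation 48 hrs at 37 °C in Opti-MEM with 2% FBS; DMSO 0.5% final.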

[1] = measured here: RFP viability control channel
[2] = measured here: GFP splicing reporter channel

Q: For CN1CCCN(c2ccc([N+](=O)[O-])cc2)CC1, which AC50 [1] is on record?
A: 5.62 µM [falling, full curve, poor fit]

Q: What does the source list for Cc1ccc(NC(=O)Cn2nc(C)c3nn(-c4ccc(Cl)cc4)c(C)c3c2=O)cc1C?
A: AC50 [2]: 0.562 µM [rising, partial curve, poor fit]; AC50 [1]: 0.891 µM [rising, full curve, poor fit]

Q: With S=C(NCCc1ccccc1)N1CCn2cccc2C1c1ccncc1 (stereo not given) as the compound, how does the AC50 [2] read?
A: 8.91 µM [falling, partial curve, poor fit]

Q: What does the source list for O=C(NCc1ccco1)c1cc2n(n1)C(C(F)(F)F)CC(c1ccc(Cl)c(Cl)c1)N2 (stereo not given)?
A: AC50 [2]: 20 µM [rising, partial curve, poor fit]; AC50 [1]: 12.6 µM [rising, partial curve]

Q: For Cc1ccc(CNC(=O)C(=O)NCC2OCCN2S(=O)(=O)c2ccc3c(c2)OCCO3)cc1 (stereo not given), which AC50 [2] is on record?
A: 17.8 µM [rising, single point]

Q: What about the AC50 [1] of the same compound?
A: 22.4 µM [rising, single point]

Q: Which AC50 [2] does the source give for CC(=O)OCC(=O)[C@@]12OC3(CCCC3)OC1CC1C3CCC4=CC(=O)C=C[C@@]4(C)[C@]3(F)C(O)C[C@]12C (stereo not given in full) here?
A: 0.562 µM [falling, partial curve]

Q: What about the AC50 [1] of the same compound?
A: 0.631 µM [falling, partial curve, poor fit]

Q: Which AC50 [2] does the source give for COc1ccc(CC(=O)Nc2cccc(C(=O)Nc3cccc(C)c3)c2)cc1 here?
A: 12.6 µM [falling, partial curve]

Q: Which AC50 [2] does the source give for COc1ccc(C(=O)OCn2nnc3ccccc3c2=O)cc1 here?
A: 0.01 µM [rising, full curve, poor fit]

Q: Which AC50 [2] does the source give for Cc1ccccc1CNC(=O)c1ccc(Cl)c([N+](=O)[O-])c1 here?
A: 31.6 µM [rising, single point]

Q: With CCCC(=O)OCC(=O)NCc1ccc(Cl)cc1 as the compound, how does the AC50 [2] read?
A: 0.00316 µM [falling, full curve, poor fit]

Q: For COc1ccc(-c2noc(C3CCCN(C(=O)c4cccs4)C3)n2)cc1 (stereo not given), which AC50 [1] is on record?
A: 12.6 µM [rising, single point]

Q: With CN(c1ccccc1)S(=O)(=O)c1ccc(Cl)c(C(=O)Nc2nc3ccccc3[nH]2)c1 as the compound, how does the AC50 [1] read?
A: 12.6 µM [rising, partial curve]

Q: With Cc1nc2ccccc2n1CCc1nc2c3ccccc3nc(SCc3cccc(F)c3)n2n1 as the compound, how does the AC50 [2] read?
A: 0.794 µM [rising, full curve]

Q: And the AC50 [1]?
A: 1.12 µM [rising, full curve, poor fit]

Q: For CCOc1ccc(N(CC(=O)Nc2cccc(N(C)S(C)(=O)=O)c2)S(=O)(=O)c2ccccc2)cc1, which AC50 [1] is on record?
A: 12.6 µM [rising, partial curve, poor fit]

Q: For COc1ccccc1CNC(=O)CCCOc1cc(=O)n(C)c2ccccc12, which AC50 [1] is on record?
A: 35.5 µM [rising, single point]

Q: What does the source list for CCNc1ncc2nc(-c3ccc(Cl)cc3)c(=O)n(Cc3ccc(F)cc3)c2n1?
A: AC50 [2]: 22.4 µM [falling, single point]; AC50 [1]: 22.4 µM [falling, single point]

Q: Which AC50 [2] does the source give for COc1ccc(-n2c(C)cc(C(=O)CSc3ccc(NC(C)=O)cc3)c2C)cc1 here?
A: 20 µM [rising, single point]

Q: What about the AC50 [1] of the same compound?
A: 25.1 µM [rising, single point]

Q: For CC(O)COc1ccccc1 (stereo not given), which AC50 [2] is on record?
A: 35.5 µM [falling, single point]

Q: What about the AC50 [1] of the same compound?
A: 0.316 µM [falling, partial curve]

Q: With c1ccc(-c2ccc(-c3cnc4n3CCCCC4)cc2)cc1 as the compound, how does the AC50 [1] read?
A: 8.91 µM [rising, partial curve]

Q: Which AC50 [2] does the source give for COc1ccc(Br)cc1CNC(=O)c1cc(=O)[nH]c2ccc(S(=O)(=O)N3CCCC3)cc12 here?
A: 3.55 µM [rising, partial curve, poor fit]

Q: And the AC50 [1]?
A: 3.16 µM [rising, partial curve]

Q: Which AC50 [2] does the source give for CCCCCCn1c(COc2ccccc2F)nnc1SCC(=O)N1c2ccccc2NC(=O)C1(C)C here?
A: 35.5 µM [rising, single point]

Q: And the AC50 [1]?
A: 35.5 µM [rising, single point]

Q: For COCCCNC(=S)Nc1ccc(CC(=O)O)cc1, which AC50 [2] is on record?
A: 5.01 µM [falling, partial curve]

Q: What about the AC50 [1] of the same compound?
A: 5.62 µM [falling, partial curve, poor fit]

Q: Which results are given for Cc1csc(NC(=O)CSc2nnc3c4ccccc4nc(C(C)(C)C)n23)n1?
A: AC50 [2]: 14.1 µM [falling, single point]; AC50 [1]: 10 µM [falling, single point]

Q: With COCCNc1ncnc2ccc(-c3cccc(OC)c3)cc12 as the compound, how does the AC50 [2] read?
A: 20 µM [falling, single point]

Q: Which AC50 [2] does the source give for O=C(C1CC(=O)N(c2ccc3c(c2)OCCO3)C1)N1CCN(c2ccccc2)CC1 (stereo not given) here?
A: 0.0178 µM [rising, full curve, poor fit]

Q: Which AC50 [2] does the source give for COc1cccc(/C=C/C(=O)c2cccc([N+](=O)[O-])c2)c1OC here?
A: 11.2 µM [falling, single point]

Q: What about the AC50 [1] of the same compound?
A: 11.2 µM [falling, single point]

Q: For CCCCCCCCCC(=O)N/N=C(\C)c1cccnc1, which AC50 [1] is on record?
A: 10 µM [rising, single point]

Q: For Fc1ccc(Nc2ccnc(Nc3ccc(F)cc3)n2)cc1, which AC50 [2] is on record?
A: 15.8 µM [rising, single point]

Q: And the AC50 [1]?
A: 22.4 µM [rising, single point]

Q: For CCc1nn(C(C)C(=O)NCCN2CCN(c3cccc(C)c3C)CC2)c(=O)c2cc3occc3n12 (stereo not given), which AC50 [1] is on record?
A: 14.1 µM [rising, single point]

Q: Which AC50 [1] does the source give for COc1cccc(/C=N/c2sc(Cc3ccccc3)c(C)c2C(N)=O)c1O here?
A: 35.5 µM [rising, single point]

Q: Which AC50 [2] does the source give for O=C(CC12CC3CC(CC(C3)C1)C2)NC(=S)Nc1ccc(CN2CCOCC2)cc1 here?
A: 35.5 µM [rising, single point]

Q: What about the AC50 [1] of the same compound?
A: 31.6 µM [rising, single point]

Q: Which AC50 [1] does the source give for O=C(NC(=S)Nc1nc2ccccc2s1)c1cccs1 here?
A: 0.00891 µM [rising, full curve, poor fit]

Q: For Cn1cc(CC(=O)N2CCN(c3ccc(Cl)cc3)CC2)c2ccccc21, which AC50 [1] is on record?
A: 35.5 µM [rising, single point]

Q: Which AC50 [2] does the source give for CCc1ccccc1NC(=O)/C(C#N)=C/c1ccc(Sc2ccccc2)o1 here?
A: 20 µM [rising, partial curve, poor fit]

Q: With O=C(NCc1ccc(Cl)cc1)c1ccc(CSCc2cccc(Cl)c2)o1 as the compound, how does the AC50 [2] read?
A: 10 µM [rising, partial curve]

Q: What about the AC50 [1] of the same compound?
A: 20 µM [rising, single point]

Q: With Fc1ccc(C2CC(c3cccs3)=NN2c2ccccc2)cc1 (stereo not given) as the compound, how does the AC50 [1] read?
A: 7.94 µM [rising, partial curve, poor fit]

Q: Which AC50 [2] does the source give for Cc1ccc(-c2nc(-c3ccc(Cl)cc3)sc2CC(=O)O)c(C)c1 here?
A: 7.08 µM [rising, full curve, poor fit]

Q: For COCCNC(=O)C(=O)N/N=C/c1cccs1, which AC50 [1] is on record?
A: 11.2 µM [falling, partial curve, poor fit]

Q: With CC(C)Cn1c(N)c(C(=O)COC(=O)c2ccccc2F)c(=O)n(C)c1=O as the compound, how does the AC50 [1] read?
A: 4.47 µM [rising, full curve, poor fit]

Q: What does the source list for O=C(/C=C/c1ccco1)Nc1ccc(Oc2ccc(Cl)cc2)cc1?
A: AC50 [2]: 3.98 µM [falling, single point]; AC50 [1]: 0.0316 µM [falling, single point]

Q: For COc1ccccc1CNc1cc(-c2ccccc2C)ncn1, which AC50 [2] is on record?
A: 6.31 µM [falling, partial curve]

Q: And the AC50 [1]?
A: 8.91 µM [falling, partial curve, poor fit]

Q: For COc1ccc(NC(=O)c2ccc3ccccc3c2)cc1NS(=O)(=O)c1ccc(F)cc1, which AC50 [1] is on record?
A: 14.1 µM [rising, single point]

Q: With CC(=O)N1CCN(c2ccccc2NC(=O)c2ccc(C#N)cc2F)CC1 as the compound, how does the AC50 [1] read?
A: 0.158 µM [rising, full curve, poor fit]

Q: For Cc1oc2cc(O)cc(O)c2c(=O)c1-c1ccc2c(c1)OCCCO2, which AC50 [1] is on record?
A: 31.6 µM [rising, single point]

Q: For Cc1ccc(NC(=O)C(c2ccc(Cl)cc2)N2CCCCC2)cc1 (stereo not given), which AC50 [2] is on record?
A: 12.6 µM [falling, single point]

Q: Which AC50 [2] does the source give for CCOc1ccc(C(=O)N[C@H](C(=O)Nc2cccc(S(=O)(=O)N3CCCCC3)c2)C(C)C)cc1 here?
A: 11.2 µM [falling, partial curve]

Q: Which AC50 [1] does the source give for COc1cccc(Nc2ncc3nc(C)c(=O)n(CCc4ccccc4)c3n2)c1 here?
A: 35.5 µM [falling, single point]

Q: What does the source list for COc1ccc(NS(=O)(=O)c2ccc(-n3nnc4ccccc43)c([N+](=O)[O-])c2)cc1?
A: AC50 [2]: 35.5 µM [rising, single point]; AC50 [1]: 25.1 µM [rising, single point]

Q: With Fc1cccc2sc(Nc3nnc(-c4ccco4)o3)nc12 as the compound, how does the AC50 [1] read?
A: 7.08 µM [rising, partial curve]

Q: With CCCCCCCCCCCC(=O)OCC(O)CO (stereo not given) as the compound, how does the AC50 [1] read?
A: 17.8 µM [falling, single point]

Q: For COc1cc(C(=O)Nc2ccc(O)cc2C(=O)O)ccc1OC(C)=O, which AC50 [2] is on record?
A: 0.794 µM [falling, single point]

Q: For Clc1ccccc1Cc1noc(CN2CCCCC2CCc2ccccn2)n1 (stereo not given), which AC50 [2] is on record?
A: 10 µM [falling, partial curve]

Q: And the AC50 [1]?
A: 10 µM [falling, partial curve, poor fit]

Q: With Cc1cc(C=O)c(C)n1-c1ccc(N2CCOCC2)cc1 as the compound, how does the AC50 [1] read?
A: 20 µM [rising, single point]

Q: For CC(C)(C)CC(C)(C)c1ccc(O)c(CN2CCN(CCC#N)CC2)c1, which AC50 [1] is on record?
A: 31.6 µM [rising, single point]

Q: With Cc1ccc(-n2c(C)cc(/C=N/NC(=O)c3ccncc3)c2C)cc1 as the compound, how does the AC50 [1] read?
A: 1 µM [rising, partial curve, poor fit]
